PMC10925025

Target: GST-STAP-2 C (C-terminal proline-rich region of STAP-2 fused to GST)
Assay: pull-down; HEK293T co-transfected with Myc-CAP and GST-STAP-2 constructs; lysed 36 h after transfection (50 mM Tris-HCl pH 7.4, 0.15 M NaCl, 1% NP-40); GSH-sepharose 2 h at 4 °C; blots with anti-Myc and anti-GST

binding: binds
B1: Myc-tagged c-Cbl associated protein (CAP) (protein, UniProt Q62417 1-1290)
chain: MSSECDVGSSKAVVNGLASGNHGPDKDMDPTKICTGKGTVTLRASSSYRGTPSSSPVSPQESPKHESKSGLEPEDPSADEWKLSSSADTNGNAQPSPLAAKGYRSVHPSLSADKPQGSPLLNEVSSSHIETDSQDFPPTSRPSSAYPSTTIVNPTIVLLQHNRDPASERRAGEQDPVPTPAELTSPGRASERRAKDASRRVVRSAQDLSDVSTDEVGIPLRNTERSKDWYKTMFKQIHKLNRDDDSDVHSPRYSFSDDTKSPLSVPRSKSEMNYIEGEKVVKRSATLPLPARSSSLKSSPERNDWEPLDKKVDTRKYRAEPKSIYEYQPGKSSVLTNEKMSRDISPEEIDLKNEPWYKFFSELEFGRPTNLEKDLSFCQAELEADLEKVETVNKSPSANSPQSSAVSPTPDITSEPPGYIYSSNFHAVKRESDGTPGGLASLENERQIYKSVLEGGDIPLQGLSGLKRPSSSASTKVDRKGGNAHMISSSSVHSRTFHTSNALGPGCKHKKPLSAAKACISEILPSKFKPRLSAPSALLQEQKSVLLPSEKAQSCENLCVSLNDSKRGLPLRVGGSIENLLMRSRRDYDSKSSSTMSLQEYGTSSRRPCPLSRKAGLHFSMFYRDMHQINRAGLSLGSISSSSVRDLASHFERSSLTLARGELGASQEGSEHIPKHTVSSRITAFEQLIQRSRSMPSLDFSGRLSKSPTPVLSRSGLTSARSAESLLESTKLRPREMDGMDSGGVYASPTCSNMADHALSFRSLVPSEPLSICSDELDHCSNVSNDSREGSGGSVHGDFPKHRLNKCKGTCPASYTRFTTIRKHEQQSSRQSDWRSDSRGDKNSLLRNIHLMSPLPFRLKKPLQQHPRQPPPSDSSESPAGQKADLPCHDPQDQPHSAGKPQVPTRLSSRHTMARLSHNSEPPLDRPAGLEDCTRAINNGNPVPYSDHGLDRNNNPQSELAAAHGDSESPRHFIPADYLESTEEFIRRRHDDKEKLLADQRRLKREQEEADIAARRHTGVIPTHHQFITNERFGDLLNIDDTAKRKSGLEMRPARAKFDFKAQTLKELPLQKGDVVYIYRQIDQNWYEGEHHGRVGIFPRTYIELLPPAEKAQPRKLAPVQVLEYGEAIAKFNFNGDTQVEMSFRKGERITLLRQVDENWYEGRIPGTSRQGIFPITYVDVLKRPLVKTPVDYIDLPYSSSPSRSATVSPQQPQAQQRRVTPDRSQPSLDLCSYQALYSYVPQNDDELELRDGDIVDVMEKCDDGWFVGTSRRTRQFGTFPGNYVKPLYL

Results are given in words; binding and its absence hold for the method and conditions named. In cells and extracts the contact can be indirect. Binding calls can cover weak binding; strength is not graded here. Where a sequence is shown, tags or fusion partners need not be part of it.
